Literature values in patent publication US11591404B2, “Treatment of cancer using a CD123 chimeric antigen receptor” (Novartis AG, priority 2014, dated 2023).
Some results were stated once for a whole list of compounds, not compound by compound.

Tested on: r/r B-ALL
Details: cited from earlier work

blinatumomab: bi-specific anti-CD19/CD3 antibody
CD19-negative relapses, patients (B-ALL, share of patients): 10-20%
complete response rates (patients with r/r B-ALL): 45-90%
